Measurements reported in patent publication US20220331391A1 (priority 2021, published 2022).
At least one compound was matched to its structure with a doubt left.

System: Coccidioides posadasii, Silveira strain
Parameters: species or system mice
Settings: mouse, in vivo

In the case of `C[C@@H]([C@H](N)C(=O)N[C@H](C(=O)O)[C@H]1O[C@@H](n2ccc(=O)[nH]c2=O)[C@H](O)[C@@H]1O)[C@H](O)c1ccc(O)cn1` [nikZ, Nikkomycin Z], the “Clear brains of survivors (mice)” value is reported as 8 clear brains of 10.
